From PMC12167491
These are yes or no findings as the source states them, for the method shown. In cells and extracts the contact can be indirect. Some binding calls cover weakened binding; strength is not graded here. For some of these results: Where a sequence is shown, tags or fusion partners need not be part of it. Each block holds one molecule with its values, some of them ahead of it.

Protein sequences, listed by entry. Tags and fused reporters are not part of them.
UniProt Q96NA2: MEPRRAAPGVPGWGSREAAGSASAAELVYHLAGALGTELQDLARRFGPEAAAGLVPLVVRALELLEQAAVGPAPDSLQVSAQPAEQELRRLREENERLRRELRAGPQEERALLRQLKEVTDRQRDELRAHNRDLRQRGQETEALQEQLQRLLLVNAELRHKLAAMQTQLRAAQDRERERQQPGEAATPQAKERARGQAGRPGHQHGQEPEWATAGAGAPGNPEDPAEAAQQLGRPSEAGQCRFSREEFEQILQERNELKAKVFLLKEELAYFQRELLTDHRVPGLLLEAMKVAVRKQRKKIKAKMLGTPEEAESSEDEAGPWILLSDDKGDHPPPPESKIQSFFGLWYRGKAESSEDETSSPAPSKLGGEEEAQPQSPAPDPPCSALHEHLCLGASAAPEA
UniProt Q9NVJ2: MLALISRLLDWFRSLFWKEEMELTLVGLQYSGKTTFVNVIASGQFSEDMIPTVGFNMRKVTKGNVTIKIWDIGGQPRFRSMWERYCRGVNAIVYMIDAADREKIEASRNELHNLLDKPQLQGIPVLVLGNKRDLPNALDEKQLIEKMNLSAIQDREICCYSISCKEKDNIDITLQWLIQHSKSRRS
UniProt Q9H0B6: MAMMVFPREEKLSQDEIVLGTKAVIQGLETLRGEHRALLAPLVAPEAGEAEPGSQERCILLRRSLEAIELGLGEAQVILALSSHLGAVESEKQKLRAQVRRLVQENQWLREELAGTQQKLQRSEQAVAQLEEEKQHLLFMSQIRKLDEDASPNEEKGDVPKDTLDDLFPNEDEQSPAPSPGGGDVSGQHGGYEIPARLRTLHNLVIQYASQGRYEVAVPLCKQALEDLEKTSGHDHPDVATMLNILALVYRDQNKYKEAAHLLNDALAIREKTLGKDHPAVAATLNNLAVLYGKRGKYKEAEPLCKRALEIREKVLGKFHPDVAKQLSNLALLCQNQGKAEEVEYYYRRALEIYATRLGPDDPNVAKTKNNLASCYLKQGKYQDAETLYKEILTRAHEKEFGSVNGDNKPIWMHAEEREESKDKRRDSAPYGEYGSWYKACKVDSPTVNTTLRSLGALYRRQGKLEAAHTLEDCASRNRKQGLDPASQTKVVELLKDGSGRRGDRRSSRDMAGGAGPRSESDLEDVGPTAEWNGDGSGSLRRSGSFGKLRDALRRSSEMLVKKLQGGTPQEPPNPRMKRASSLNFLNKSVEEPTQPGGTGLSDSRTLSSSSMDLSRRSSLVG

Columns and labels:
[1] = biological target: Rab interacting lysosomal protein (RILP) (UniProt Q96NA2); test: co-IP; RILP with ARL8B and KLC2, with or without oxidative stress (Figure S6); cells and constructs not shown; lysis buffer 50 mM Tris-HCl pH 7.5, 150 mM NaCl, 0.5% Triton X-100, 1 mM EDTA
[2] = biological target: T1, VPS22-MYC (UniProt Q96H20); test: co-IP; A549 cells transfected with VPS22-MYC, with or without ATE1 siRNA and tBHP (250 uM, 6 h); lysis buffer 50 mM Tris-HCl pH 7.5, 150 mM NaCl, 0.5% Triton X-100, 1 mM EDTA; protein A/G agarose, 4 C
T1 sequence: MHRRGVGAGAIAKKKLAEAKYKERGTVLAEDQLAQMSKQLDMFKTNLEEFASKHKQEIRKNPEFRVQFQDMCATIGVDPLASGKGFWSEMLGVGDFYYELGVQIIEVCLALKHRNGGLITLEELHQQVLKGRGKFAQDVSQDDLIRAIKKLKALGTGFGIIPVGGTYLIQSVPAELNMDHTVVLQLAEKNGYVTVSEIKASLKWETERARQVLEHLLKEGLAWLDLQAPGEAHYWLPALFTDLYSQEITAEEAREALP

[3] = biological target: T2, Annexin 1 (ANXA1) (human (endogenous in A549)) (UniProt P04083); test: co-IP; endogenous proteins in A549 cells, with or without tBHP (250 uM, 6 h); lysis buffer 50 mM Tris-HCl pH 7.5, 150 mM NaCl, 0.5% Triton X-100, 1 mM EDTA; protein A/G agarose, 4 C
T2 sequence: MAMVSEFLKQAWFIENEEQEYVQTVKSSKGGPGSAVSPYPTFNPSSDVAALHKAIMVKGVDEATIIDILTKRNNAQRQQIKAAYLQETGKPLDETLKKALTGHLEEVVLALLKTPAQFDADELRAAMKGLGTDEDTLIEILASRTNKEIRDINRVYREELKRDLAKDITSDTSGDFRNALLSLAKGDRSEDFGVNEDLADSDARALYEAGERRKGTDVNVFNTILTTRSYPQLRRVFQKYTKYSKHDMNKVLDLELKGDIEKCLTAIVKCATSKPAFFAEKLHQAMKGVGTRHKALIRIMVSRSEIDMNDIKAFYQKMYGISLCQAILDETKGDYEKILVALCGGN

binding [1]: binds
Molecule: ARL8B (from UniProt Q9NVJ2 1-186)

binding [1]: binds
Molecule: Kinesin (KLC2) (from UniProt Q9H0B6 1-622)

binding [2]: binds
B1: VPS36 (protein, UniProt Q86VN1 1-386)
chain: MDRFVWTSGLLEINETLVIQQRGVRIYDGEEKIKFDAGTLLLSTHRLIWRDQKNHECCMAILLSQIVFIEEQAAGIGKSAKIVVHLHPAPPNKEPGPFQSSKNSYIKLSFKEHGQIEFYRRLSEEMTQRRWENMPVSQSLQTNRGPQPGRIRAVGIVGIERKLEEKRKETDKNISEAFEDLSKLMIKAKEMVELSKSIANKIKDKQGDITEDETIRFKSYLLSMGIANPVTRETYGSGTQYHMQLAKQLAGILQVPLEERGGIMSLTEVYCLVNRARGMELLSPEDLVNACKMLEALKLPLRLRVFDSGVMVIELQSHKEEEMVASALETVSEKGSLTSEEFAKLVGMSVLLAKERLLLAEKMGHLCRDDSVEGLRFYPNLFMTQS

binding [3]: binds
B2: VPS22 (SNF8), endogenous (protein, UniProt Q96H20 1-258)
chain: T1 sequence
